PubChem BioAssay AID743454 | Peter MacCallum Cancer Centre – 2014
Purpose: 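Genes whose loss kills vorinostat-resistant colon cancer cells under vorinostat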 (primary screen). System: human HCT116-VR colon cancer cells, selected for vorinostat resistance. Knock-down reagent: siRNA pool against human genes, 40 nM siRNA pool. Duration: vorinostat for 24 h, read-out about 72 h after transfection. Challenge: vorinostat at 2.5 µM final. Measurement: 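Cell viability by CellTiter-Fluor and caspase 3/7 activity by luminescence, each scaled to mock wells per plate, duplicates averaged, then robust z-scored over all plates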. Reading the numbers: viability robust z-score: higher = more viable cells than screen typical; caspase robust z-score: higher = more caspase 3/7 activity than screen typical. Call rule: 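Hits are knock-downs in viability class RV1/RV2 or caspase class CA1/CA2, excluding ones that killed cells in the no-drug cell-count arm; hits then retested with single siRNAs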.
Shown is one part, drawn at random, of about 18,000 reagents. Over the whole deposit, 450 (2.5%) were called active. 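Single biological run; no consistent viability z cut-off exists, so the class columns, not z-scores, define the calls.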

gene symbol	viability hit class	caspase hit class	viability robust z-score	caspase robust z-score	Outcome
HOXD8 (homeobox D8)	no change	no change	1.17	-0.03	inactive
EIF3I (eukaryotic translation initiation factor 3 subunit I)	RV2 (reduced viability)	no change	-3.29	-0.86	active
CD81 (CD81 molecule)	no change	no change	0.39	1.81	inactive
APOB (apolipoprotein B)	no change	no change	1.29	1.38	inactive
TBC1D28 (TBC1 domain family member 28)	no change	no change	-0.66	0.22	inactive
RNF133 (ring finger protein 133)	no change	no change	-0.05	-0.12	inactive
ZDHHC23 (zDHHC palmitoyltransferase 23)	no change	no change	1.3	0.76	inactive
PELI1 (pellino E3 ubiquitin protein ligase 1)	no change	no change	-3.21	-0.84	inactive
HSP90AB1 (heat shock protein 90 alpha family class B member 1)	no change	no change	0.7	2.15	inactive
CRMP1 (collapsin response mediator protein 1)	no change	no change	1.06	-0.02	inactive
LSM2	no change	no change	-1.84	1	inactive
ZNF488 (zinc finger protein 488)	no change	no change	-1.06	0.45	inactive
MED31 (mediator complex subunit 31)	no change	no change	-0.58	-0.14	inactive
ISG20 (interferon stimulated exonuclease gene 20)	no change	no change	-0.36	-0.5	inactive
PLEKHA3 (pleckstrin homology domain containing A3)	no change	no change	1.45	0.08	inactive
TSPAN8 (tetraspanin 8)	no change	no change	-0.51	0.08	inactive
LAMP3 (lysosome associated membrane protein 3)	no change	no change	-0.32	0.46	inactive
SNX10 (sorting nexin 10)	no change	no change	0.42	-0.97	inactive
PLCB4 (phospholipase C beta 4)	no change	no change	-0.72	0.76	inactive
MYOM1 (myomesin 1)	no change	no change	-0.58	-0.54	inactive
RHOJ (ras homolog family member J)	no change	no change	0.54	-0.8	inactive
PSG9 (pregnancy specific beta-1-glycoprotein 9)	no change	no change	0.26	-0.28	inactive
NAV1 (neuron navigator 1)	no change	no change	-0.89	1.39	inactive
RBM6 (RNA binding motif protein 6)	no change	no change	1.59	-1.06	inactive
STATH (statherin)	no change	no change	0.91	-0.22	inactive
KIF2C (kinesin family member 2C)	no change	no change	0.2	-0.84	inactive
RPRM (reprimo, TP53 dependent G2 arrest mediator homolog)	no change	no change	0.41	3.09	inactive
SLC49A3	no change	no change	-0.13	0.08	inactive
SLITRK3 (SLIT and NTRK like family member 3)	no change	no change	-0.22	-0.91	inactive
ILKAP (ILK associated serine/threonine phosphatase)	no change	no change	0.59	0.37	inactive
NT5C2 (5'-nucleotidase, cytosolic II)	no change	no change	1.25	-0.78	inactive
OR4C15 (olfactory receptor family 4 subfamily C member 15)	no change	no change	-1.49	3.86	inactive
MLLT11 (MLLT11 transcription factor 7 cofactor)	no change	no change	0.66	-0.06	inactive
TRAPPC1 (trafficking protein particle complex subunit 1)	no change	no change	-1.5	0.73	inactive
FFAR2 (free fatty acid receptor 2)	no change	no change	0.91	0	inactive
RNF32 (ring finger protein 32)	no change	no change	-0.52	-0.46	inactive
CTSZ (cathepsin Z)	no change	no change	-0.52	3.2	inactive
PCDHB16 (protocadherin beta 16)	no change	no change	-1.02	0.55	inactive
SCGB2A2 (secretoglobin family 2A member 2)	no change	no change	0.11	0.66	inactive
TBXT (T-box transcription factor T)	no change	no change	-1.63	4.62	inactive
NTN4 (netrin 4)	no change	no change	0.82	-0.12	inactive
RIMS2 (regulating synaptic membrane exocytosis 2)	no change	no change	1.06	-0.02	inactive
TENT5C (terminal nucleotidyltransferase 5C)	no change	no change	1.06	0.08	inactive
CENATAC (centrosomal AT-AC splicing factor)	no change	no change	1.14	0.04	inactive
KLHL28 (kelch like family member 28)	no change	no change	0.54	-0.28	inactive
C1QL2 (complement C1q like 2)	no change	no change	1.14	1.47	inactive
AKAP14 (A-kinase anchoring protein 14)	no change	no change	0.86	0.34	inactive
KDM8 (lysine demethylase 8 (putative))	no change	no change	-2.16	-1.13	inactive
SOCS7 (suppressor of cytokine signaling 7)	no change	no change	-0.52	0.88	inactive
NEO1 (neogenin 1)	RV2 (reduced viability)	no change	-3.02	-0.62	active
ZBED4 (zinc finger BED-type containing 4)	no change	no change	0.06	-1.06	inactive
MPPED1 (metallophosphoesterase domain containing 1)	no change	no change	0.6	4.33	inactive
OR13A1 (olfactory receptor family 13 subfamily A member 1)	no change	no change	1.36	0.17	inactive
PSCA (prostate stem cell antigen)	no change	no change	-2.23	-1.36	inactive
LOC642219 (retired record)	no change	no change	0.26	1.06	inactive
TOM1 (target of myb1 membrane trafficking protein)	no change	no change	-1.98	-1.23	inactive
TP53TG3 (TP53 target 3)	no change	no change	-0.84	0.76	inactive

Ordered by “viability robust z-score” (lowest first): some entries from above
gene symbol	viability hit class	caspase hit class	viability robust z-score	caspase robust z-score	Outcome
PSCA (prostate stem cell antigen)	no change	no change	-2.23	-1.36	inactive
OR13A1 (olfactory receptor family 13 subfamily A member 1)	no change	no change	1.36	0.17	inactive
